Patent publication US11541107B2, “Peptides and T cells for use in immunotherapeutic treatment of various cancers” (Immatics Biotechnologies GmbH, priority 2015, dated 2023)
For some of these results: Expression values are those of the mRNA of the gene that encodes the peptide; a gene is named only where it was looked up.

Key:
[1] = system: source genes of the peptides; assay: Target coverage of source genes based on TCGA Research Network expression data; set-up: species or system human; conditions: for Target coverage, over-expression category of source gene, SARC (N = 263): Sarcoma; for Target coverage, over-expression category of source gene, TGCT (N = 156): Testicular germ cell tumors; for Target coverage, over-expression category of source gene, THCA (N = 513): Thyroid carcinoma; for Target coverage, over-expression category of source gene, UCS (N = 57): Uterine carcinosarcoma; for Target coverage, over-expression category of source gene, UCEC (N = 546): Uterine corpus endometrial carcinoma; for Target coverage, over-expression category of source gene, SARC: Sarcoma (N = 263); for Target coverage, over-expression category of source gene, SKCM: Skin cutaneous melanoma (N = 473); for Target coverage, over-expression category of source gene, STAD: Stomach adenocarcinoma (N = 415); for Target coverage, over-expression category of source gene, TGCT: Testicular germ cell tumors (N = 156); for Target coverage, over-expression category of source gene, THYM: Thymoma (N = 120); for Target coverage, over-expression category of source gene, UCS: Uterine carcinosarcoma (N = 57); for Target coverage, over-expression category of source gene, UCEC: Uterine corpus endometrial carcinoma (N = 546); for Target coverage, over-expression category of source gene, SKCM (N = 473): Skin cutaneous melanoma
[2] = system: primary cancer tissue (A*24-positive samples); assay: Presentation of HLA-A*24-binding tumor-associated peptides on tumor and normal tissues (HLA immunoprecipitation, LC-MS, XPRESIDENT); set-up: species or system human; conditions: Table 9A; HLA-A*24-binding peptides; cancer entities on which the peptide was found presented
[3] = cutoff more than 2-fold above highest 75% percentile of normal organs

253: peptide found in NPFFR2 (gene looked up) (IYGFFNENF; listed as Homo sapiens) [compound 253]
Target coverage, over-expression category of source gene, SARC (N = 263) [1, 3]: C (>=5% of tumors above the cutoff, but <20%) | Target coverage, over-expression category of source gene, TGCT (N = 156) [1, 3]: C (>=5% of tumors above the cutoff, but <20%) | Target coverage, over-expression category of source gene, THYM (N = 120) ([1]; Thymoma, cutoff more than 2-fold above highest 75% percentile of normal organs): C (>=5% of tumors above the cutoff, but <20%) | Target coverage, over-expression category of source gene, THCA (N = 513) [1, 3]: C (>=5% of tumors above the cutoff, but <20%) | Target coverage, over-expression category of source gene, UCS (N = 57) [1, 3]: C (>=5% of tumors above the cutoff, but <20%)

181: peptide found in PGR (gene looked up) (VYPPYLNYL; listed as Homo sapiens) [compound 181]
Target coverage, over-expression category of source gene, SARC (N = 263) [1, 3]: C (>=5% of tumors above the cutoff, but <20%) | Target coverage, over-expression category of source gene, UCS (N = 57) [1, 3]: C (>=5% of tumors above the cutoff, but <20%) | Target coverage, over-expression category of source gene, UCEC (N = 546) [1, 3]: A (>=50% of tumors above the cutoff)

354: peptide found in KIF18A (gene looked up) (VYNEQIRDLL; listed as Homo sapiens) [compound 354]
Target coverage, over-expression category of source gene, SARC [1]: B (>=20% of tumors above the cutoff, but <50%) | Target coverage, over-expression category of source gene, SKCM [1]: B (>=20% of tumors above the cutoff, but <50%) | Target coverage, over-expression category of source gene, STAD [1]: A (>=50% of tumors above the cutoff) | Target coverage, over-expression category of source gene, TGCT [1]: A (>=50% of tumors above the cutoff) | Target coverage, over-expression category of source gene, THYM [1]: B (>=20% of tumors above the cutoff, but <50%) | Target coverage, over-expression category of source gene, UCS [1]: A (>=50% of tumors above the cutoff) | Target coverage, over-expression category of source gene, UCEC [1]: B (>=20% of tumors above the cutoff, but <50%)

219: peptide found in CYP4Z1 (gene looked up) (SYLKAVFNL; listed as Homo sapiens) [compound 219]
Target coverage, over-expression category of source gene, UCS (N = 57) [1, 3]: C (>=5% of tumors above the cutoff, but <20%) | Target coverage, over-expression category of source gene, UCEC (N = 546) [1, 3]: C (>=5% of tumors above the cutoff, but <20%)

398: peptide found in KIF2C (gene looked up) (IYNGKLFDLL; listed as Homo sapiens) [compound 398]
Target coverage, over-expression category of source gene, SARC [1]: B (>=20% of tumors above the cutoff, but <50%) | Target coverage, over-expression category of source gene, SKCM [1]: B (>=20% of tumors above the cutoff, but <50%) | Target coverage, over-expression category of source gene, STAD [1]: B (>=20% of tumors above the cutoff, but <50%) | Target coverage, over-expression category of source gene, TGCT [1]: A (>=50% of tumors above the cutoff) | Target coverage, over-expression category of source gene, THYM [1]: A (>=50% of tumors above the cutoff) | Target coverage, over-expression category of source gene, UCS [1]: A (>=50% of tumors above the cutoff) | Target coverage, over-expression category of source gene, UCEC [1]: B (>=20% of tumors above the cutoff, but <50%)

321: peptide found in NME2 (gene looked up) (SLWFKPEEL; listed as Homo sapiens) [compound 321]
Target coverage, over-expression category of source gene, PRAD (N = 498) ([1]; Prostate adenocarcinoma, cutoff more than 2-fold above highest 75% percentile of normal organs): C (>=5% of tumors above the cutoff, but <20%) | Target coverage, over-expression category of source gene, TGCT (N = 156) [1, 3]: C (>=5% of tumors above the cutoff, but <20%)

125: peptide found in PRKDC (gene looked up) (VFSRDFGLLVF; listed as Homo sapiens) [compound 125]
Target coverage, over-expression category of source gene, SARC (N = 263) [1, 3]: C (>=5% of tumors above the cutoff, but <20%) | Target coverage, over-expression category of source gene, SKCM (N = 473) [1, 3]: C (>=5% of tumors above the cutoff, but <20%) | Target coverage, over-expression category of source gene, UVM (N = 80) ([1]; Uveal melanoma, cutoff more than 2-fold above highest 75% percentile of normal organs): C (>=5% of tumors above the cutoff, but <20%)

100: peptide found in KIF20A (gene looked up) (VYIESRIGTSTSF; listed as Homo sapiens) [compound 100]
Target coverage, over-expression category of source gene, TGCT (N = 156) [1, 3]: A (>=50% of tumors above the cutoff) | Target coverage, over-expression category of source gene, UCS (N = 57) [1, 3]: A (>=50% of tumors above the cutoff)

191: peptide found in TIGIT (gene looked up) (TYPDGTYTGRIF; listed as Homo sapiens) [compound 191]
Target coverage, over-expression category of source gene, SARC (N = 263) [1, 3]: C (>=5% of tumors above the cutoff, but <20%) | Target coverage, over-expression category of source gene, SKCM (N = 473) [1, 3]: C (>=5% of tumors above the cutoff, but <20%) | Target coverage, over-expression category of source gene, TGCT (N = 156) [1, 3]: C (>=5% of tumors above the cutoff, but <20%)

405: peptide found in MMP12 (gene looked up) (NYPKSIHSF; listed as Homo sapiens) [compound 405]
Target coverage, over-expression category of source gene, STAD [1]: B (>=20% of tumors above the cutoff, but <50%) | Target coverage, over-expression category of source gene, TGCT [1]: B (>=20% of tumors above the cutoff, but <50%)

408: peptide found in PLK4 (gene looked up) (QYASRFVQL; listed as Homo sapiens) [compound 408]
Target coverage, over-expression category of source gene, SARC [1]: B (>=20% of tumors above the cutoff, but <50%) | Target coverage, over-expression category of source gene, SKCM [1]: C (>=5% of tumors above the cutoff, but <20%) | Target coverage, over-expression category of source gene, STAD [1]: B (>=20% of tumors above the cutoff, but <50%) | Target coverage, over-expression category of source gene, TGCT [1]: A (>=50% of tumors above the cutoff) | Target coverage, over-expression category of source gene, THYM [1]: B (>=20% of tumors above the cutoff, but <50%) | Target coverage, over-expression category of source gene, UCS [1]: B (>=20% of tumors above the cutoff, but <50%) | Target coverage, over-expression category of source gene, UCEC [1]: B (>=20% of tumors above the cutoff, but <50%)

382 (AYLPPLQQVF; listed as Homo sapiens) [compound 382]
ENTITIES [2]: PCA, HCC, NSCLC, GC, RCC, GB

212: peptide found in SGK3 (gene looked up) (SYAPPSEDLF; listed as Homo sapiens) [compound 212]
Target coverage, over-expression category of source gene, SKCM (N = 473) [1, 3]: C (>=5% of tumors above the cutoff, but <20%) | Target coverage, over-expression category of source gene, THCA (N = 513) [1, 3]: C (>=5% of tumors above the cutoff, but <20%)

413: peptide found in MST1R (gene looked up) (NYLLYVSNF; listed as Homo sapiens) [compound 413]
Target coverage, over-expression category of source gene, STAD [1]: C (>=5% of tumors above the cutoff, but <20%)

409: peptide found in RRM2 (gene looked up) (YFISHVLAF; listed as Homo sapiens) [compound 409]
Target coverage, over-expression category of source gene, SARC [1]: C (>=5% of tumors above the cutoff, but <20%) | Target coverage, over-expression category of source gene, SKCM [1]: C (>=5% of tumors above the cutoff, but <20%) | Target coverage, over-expression category of source gene, STAD [1]: B (>=20% of tumors above the cutoff, but <50%) | Target coverage, over-expression category of source gene, TGCT [1]: B (>=20% of tumors above the cutoff, but <50%) | Target coverage, over-expression category of source gene, THYM [1]: B (>=20% of tumors above the cutoff, but <50%) | Target coverage, over-expression category of source gene, UCEC [1]: C (>=5% of tumors above the cutoff, but <20%)

348: peptide found in FANCD2 (gene looked up) (IYLEHTESI; listed as Homo sapiens) [compound 348]
Target coverage, over-expression category of source gene, SARC (N = 263) [1, 3]: C (>=5% of tumors above the cutoff, but <20%) | Target coverage, over-expression category of source gene, STAD (N = 415) ([1]; Stomach adenocarcinoma, cutoff more than 2-fold above highest 75% percentile of normal organs): C (>=5% of tumors above the cutoff, but <20%) | Target coverage, over-expression category of source gene, TGCT (N = 156) [1, 3]: A (>=50% of tumors above the cutoff)

361: peptide found in PSMC1 (gene looked up) (TYADIGGLDNQI; listed as Homo sapiens) [compound 361]
Target coverage, over-expression category of source gene, SARC [1]: C (>=5% of tumors above the cutoff, but <20%) | Target coverage, over-expression category of source gene, TGCT [1]: B (>=20% of tumors above the cutoff, but <50%) | Target coverage, over-expression category of source gene, THYM [1]: C (>=5% of tumors above the cutoff, but <20%) | Target coverage, over-expression category of source gene, UCS [1]: C (>=5% of tumors above the cutoff, but <20%) | Target coverage, over-expression category of source gene, UCEC [1]: B (>=20% of tumors above the cutoff, but <50%)
